Values from PubChem BioAssay AID1159584 (Peter MacCallum Cancer Centre, 2016).
Shown is one part, drawn at random, of about 18,000 deposited reagents. Not all columns of the deposit are shown. No sequences are given here. Not given: the amount of reagent, the time to read-out.

Assay: 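Genes that CDH1-null MCF10A cells selectively depend on to survive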 (primary screen)
Cells: human MCF10A breast epithelial cells, parental and CDH1-null
Knock-down reagent: siRNA against human genes
Measured: 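Cell viability by CellTiter-Glo ATP luminescence, each line scaled to the mean of mock wells across plates, then CDH1-null over parental ratio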
Scale: CDH1-null / parental viability ratio: higher = CDH1-null cells survive relatively better than parental

| gene symbol | CDH1-null / parental viability ratio |
| --- | --- |
| SPATA12 (GeneID 353324) | 0.79 |
| PBX2 (GeneID 5089) | 1.24 |
| CPPED1 (GeneID 55313) | 0.9 |
| LOC401052 (retired record) (GeneID 401052) | 1.04 |
| ATL1 (GeneID 51062) | 0.87 |
| BCAN (GeneID 63827) | 0.93 |
| PTCHD1 (GeneID 139411) | 1.21 |
| ERCC8 (GeneID 1161) | 0.97 |
| ALG10B (GeneID 144245) | 1.02 |
| PLPP7 (GeneID 84814) | 1.49 |
| CSDE1 (GeneID 7812) | 0.91 |
| CDV3 (GeneID 55573) | 0.98 |
| CNPY4 (GeneID 245812) | 1.18 |
| APOC1 (GeneID 341) | 0.96 |
| TSPO2 (GeneID 222642) | 0.95 |
| TAS2R41 (GeneID 259287) | 1.15 |
| SECTM1 (GeneID 6398) | 0.93 |
| WDR90 (GeneID 197335) | 0.92 |
| COLGALT1 (GeneID 79709) | 0.9 |
| MTARC2 (GeneID 54996) | 0.82 |
| LMOD3 (GeneID 56203) | 0.91 |
| ALAD (GeneID 210) | 1.09 |
| IFT80 (GeneID 57560) | 0.92 |
| ATP11A (GeneID 23250) | 1.06 |
| ECM1 (GeneID 1893) | 0.78 |
| NEXMIF (GeneID 340533) | 1.02 |
| ZNF639 (GeneID 51193) | 0.74 |
| ZSCAN1 (GeneID 284312) | 1.12 |
| PKD2 (GeneID 5311) | 1.14 |
| NOTCH2 (GeneID 4853) | 0.95 |
| LSM12 (GeneID 124801) | 1.51 |
| LEO1 (GeneID 123169) | 0.95 |
| COA5 (GeneID 493753) | 0.73 |
| SLC15A2 (GeneID 6565) | 1.11 |
| SEMA5B (GeneID 54437) | 0.77 |
| GMNN (GeneID 51053) | 0.84 |
| HOXB9 (GeneID 3219) | 0.98 |
| WNT16 (GeneID 51384) | 1 |
| RBMS3 (GeneID 27303) | 0.97 |
| CTHRC1 (GeneID 115908) | 1.33 |
| ETV4 (GeneID 2118) | 1.33 |
| MAP3K14 (GeneID 9020) | 0.96 |
| AGA (GeneID 175) | 0.85 |
| GLT1D1 (GeneID 144423) | 0.89 |
| NKX2-2 (GeneID 4821) | 1.1 |
| GFPT1 (GeneID 2673) | 1.03 |
| ACSBG1 (GeneID 23205) | 1.03 |
| NAP1L2 (GeneID 4674) | 0.86 |
| PSG8 (GeneID 440533) | 0.93 |
| DYNLT3 (GeneID 6990) | 1.05 |
| USP15 (GeneID 9958) | 1.13 |
| ATOH7 (GeneID 220202) | 0.76 |
| KIF4A (GeneID 24137) | 1.56 |
| KRT17 (GeneID 3872) | 1.32 |
| EPYC (GeneID 1833) | 1.17 |
| TNFRSF14 (GeneID 8764) | 0.87 |
| OR3A2 (GeneID 4995) | 1.22 |
| IGF1 (GeneID 3479) | 0.9 |
| CCDC60 (GeneID 160777) | 0.81 |
| NUP54 (GeneID 53371) | 1.16 |
| PPP1R17 (GeneID 10842) | 0.71 |
| L1CAM (GeneID 3897) | 0.75 |
| JAM3 (GeneID 83700) | 1.18 |
| GPRIN2 (GeneID 9721) | 0.8 |
| CTDSPL2 (GeneID 51496) | 0.95 |
| RLN3 (GeneID 117579) | 0.79 |
| WASL (GeneID 8976) | 1.04 |
| TMEM257 (retired record) (GeneID 9142) | 0.97 |
